For test [1], the target named is marmoset IL-4R (marmoset) (UniProt Q0PIT7). Put plainly: ELISA on coated monkey IL-4R (FIG. 7). On the technique in general: In an ELISA, binding on a coated surface is turned into a signal by an enzyme label.
Test [2] shares this target. The test is described as follows: ELISA on coated monkey IL-4R, same method as for FIG. 6.

These are yes or no findings as the source states them, for the method shown. Some results given as binding are weak or reduced against the parent protein; the word gives no strength.

B1: IL-4R single-domain antibody Nb103 (VHH)
VHH: QVQLQESGGGSVQAGGSLRVSCAASGSTSYRYCMAWFRQAPGKEREAVASIRPRSGRAYYADSVKGRFTISLDNAKNTLYLQMNSLKPEDTAMYYCAASDNDGNCQDYWGKGTQVTVSS
notes: also called candidate single-domain antibody Nb103; IL-4Ra Nb103 antibody; not shown: tag(s) from the pMECS phage vector
As to B1, the binding result in test [1] and in test [2] was “binds” throughout.

These data come from US20220411519A1 (SHANGHAI NOVAMAB BIOPHARMACEUTICALS, published 2022).
